From patent US6878521B1, “Fibril-blocking peptide, a method for preventing fibril formation” (The University of Chicago, priority 1999, dated 2005) come the findings set out here.

The chains behind the UniProt entries cited, without tags or fusion partners.
UniProt P0DMV8: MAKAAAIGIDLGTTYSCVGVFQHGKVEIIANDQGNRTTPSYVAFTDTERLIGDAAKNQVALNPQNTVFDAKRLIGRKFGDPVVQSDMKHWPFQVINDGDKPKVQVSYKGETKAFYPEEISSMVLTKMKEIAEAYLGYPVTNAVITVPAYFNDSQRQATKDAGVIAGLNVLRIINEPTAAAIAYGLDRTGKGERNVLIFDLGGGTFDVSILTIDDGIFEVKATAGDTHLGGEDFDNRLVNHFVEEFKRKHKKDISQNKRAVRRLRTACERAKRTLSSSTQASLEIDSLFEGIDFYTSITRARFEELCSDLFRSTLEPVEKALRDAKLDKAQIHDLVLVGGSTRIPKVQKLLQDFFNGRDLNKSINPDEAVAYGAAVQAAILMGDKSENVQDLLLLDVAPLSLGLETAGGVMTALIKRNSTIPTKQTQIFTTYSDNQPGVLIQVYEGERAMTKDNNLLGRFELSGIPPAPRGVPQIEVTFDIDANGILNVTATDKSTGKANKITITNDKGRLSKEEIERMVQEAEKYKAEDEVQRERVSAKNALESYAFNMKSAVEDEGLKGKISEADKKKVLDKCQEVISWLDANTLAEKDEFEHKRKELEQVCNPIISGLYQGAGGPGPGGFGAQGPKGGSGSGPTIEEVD

In this assay the target is Hsp70 (heat shock protein 70), inducible gene from the pETWThsp70 vector; recombinant in vitro and over-expressed in COS-1 cells (UniProt P0DMV8). The assay can be described thus: peptide binding to Hsp70, method not described.

Results are given in words; binding and its absence hold for the method and conditions named. Some entries that bind do so weakly or less than the wild type.

Turning to FTLTISS [FTLTISS peptide (residues 71-77 of human kappa-IV light chain variable domain)], the binding result is on record as “binds”.
